The nature of the series: general procedure: solution-phase peptide synthesis; p-nitrophenyl and pentachlorophenyl active esters with HOBt/DIEA; DCC/HOBt for f. To be noted: coupling step, di-trifluoroacetate salt.

The values below come from US4237046 (dated 1980).

For the substance “Benzyloxycarbonyl-L-alanyl-L-valyl-N^ε -t-butyloxycarbonyl-L-lysyl-N^ε -t-butyloxycarbonyl-L-lysyl-L-tyrosyl-L-leucyl-L-asparaginyl-O-t-butyl-L-seryl-L-valyl-L-leucyl-L-threoninamide”, the step yield came to 84%.

Regarding “Benzyloxycarbonyl-L-asparaginyl-O-t-butyl-L-seryl-L-valyl-L-leucyl-L-threoninamide”, the step yield is on record as 91%.

As for “Benzyloxycarbonyl-L-leucyl-L-asparaginyl-O-t-butyl-L-seryl-L-valyl-L-leucyl-L-threoninamide”, the step yield is 95%.

With “Benzyloxycarbonyl-L-tyrosyl-L-leucyl-L-asparaginyl-O-t-butyl-L-seryl-L-valyl-L-leucyl-L-threoninamide”, the step yield was found to be 92%.

In the case of “Benzyloxycarbonyl-L-valyl-N^ε -t-butyloxycarbonyl-L-lysyl-N^ε -t-butyloxycarbonyl-L-lysyl-L-tyrosyl-L-leucyl-L-asparaginyl-O-t-butyl-L-seryl-L-valyl-L-leucyl-L-threoninamide”, the step yield was 81%.

In the case of “N-Benzylocycarbonyl-O-t-butyl-L-seryl-L-valyl-L-leucyl-L-threonin-amide”, the step yield came out at 86%.

Regarding “N^α -Benzyloxycarbonyl-N^ε -t-butyloxycarbonyl-L-lysyl-L-tyrosyl-L-leucyl-L-asparaginyl-O-t-butyl-L-seryl-L-valyl-L-leucyl-L-threoninamide”, the step yield is recorded as 98%.

Take “N^α -Benzyloxycarbonyl-N^ε -t-butyloxycarbonyl-L-lysyl-N^ε -t-butyloxy-carbonyl-L-lysyl-L-tyrosyl-L-leucyl-L-asparaginyl-O-t-butyl-L- seryl-L-valyl-L-leucyl-L-threoninamide”: the step yield worked out at 97%.

With “t-Butyloxycarbonyl-L-glutaminyl-L-methionyl-L-alanyl-L-valyl-N^ε -benzyloxycarbonyl-L-lysine benzyl ester”, the step yield is listed as 93%.

In the case of “t-Butyloxycarbonyl-L-methionyl-L-alanyl-L-valyl-N^ε -benzyloxycarbonyl-L-lysine benzyl ester”, the step yield is on record as 93%.

For “t-Butyloxycarbonyl-t-glutaminyl-L-methionyl-L-alanyl-L-valyl-N^ε -t-butyloxycarbonyl-L-lysinamide”, the step yield turned out to be 87%.

Consider “tert-Butyloxycarbonyl-L-glutaminyl-L-methionyl-L-alanyl-L-valine tert-butyl ester”, for which, under “total yield”, the step yield came to 87%.
